# These are yes or no findings as the source states them, for the method shown. Some entries that bind do so weakly or less than the wild type. Sequences can lack the tags named with a protein.
# The chains behind the UniProt entries cited, without tags or fusion partners. Residues count along the entry.
# UniProt P05121, residues 24-402: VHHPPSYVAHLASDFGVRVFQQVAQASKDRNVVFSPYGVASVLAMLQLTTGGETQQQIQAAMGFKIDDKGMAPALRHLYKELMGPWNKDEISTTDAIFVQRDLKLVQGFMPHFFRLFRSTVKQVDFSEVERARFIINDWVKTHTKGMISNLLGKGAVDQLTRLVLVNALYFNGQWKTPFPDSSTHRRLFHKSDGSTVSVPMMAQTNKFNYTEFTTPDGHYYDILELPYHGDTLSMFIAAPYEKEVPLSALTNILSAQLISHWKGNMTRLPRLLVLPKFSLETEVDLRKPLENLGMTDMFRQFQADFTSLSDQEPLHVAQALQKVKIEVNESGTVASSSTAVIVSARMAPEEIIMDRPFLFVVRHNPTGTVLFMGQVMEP
# Experiments:
# [1] = biological target: recombinant glycosylated human PAI-1 (active), produced in insect cells (human) (UniProt P05121); test: inferred by the filing from the PAI-1 inhibition assay
# [2] = biological target: recombinant non-glycosylated human PAI-1 (active), produced in E. coli as N-terminal 6xHis-tagged fusion protein (human) (UniProt P05121); test: as above
binder,measurement,setting,value
"PAI1-0046 (reference PAI-1 latency inducing antibody with a human IgG4 SPLE Fc-region) (antibody, V domains shown) VH: QVQLVQSGAEVKKPGASVKVSCKASGYTFTNYGMNWVRQAPGQGLEWMGWINTYTGEPTYTDDFKGRFTMTLDTSISTAYMELSRLRSDDTAVYYCAKDVSGFVFDYWGQGTLVTVSS VL: DIVMTQSPDSLAVSLGERATINCKSSQSLLNIIKQKNCLAWYQQKPGQPPKLLIYWASTRESGVPDRFSGSGSGTDFTLTISSLQAEDVAVYYCQQYYSYPYTFGQGTKLEIKR",binding,[1],binds
same,binding,[2],binds

# Source: patent publication US20170008949A1 (Hoffmann-La Roche, published 2017)
